Laboratory results as given in the supplement of paper PMC12819154, “High-throughput peptide-centric local stability assay extends protein–ligand identification to membrane proteins, tissues and bacteria” (Nature Structural & Molecular Biology, 2025).
The other results are listed elsewhere or left out. Most values lie at the level of the controls, where differences are scatter.

Sequences of proteins named here, by UniProt entry; tags and fusion partners are left off. A change or cut given only in a name is not applied to a line headed by its entry.
UniProt P63254: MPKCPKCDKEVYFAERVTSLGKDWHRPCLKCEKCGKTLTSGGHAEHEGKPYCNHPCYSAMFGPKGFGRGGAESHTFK
UniProt P97302: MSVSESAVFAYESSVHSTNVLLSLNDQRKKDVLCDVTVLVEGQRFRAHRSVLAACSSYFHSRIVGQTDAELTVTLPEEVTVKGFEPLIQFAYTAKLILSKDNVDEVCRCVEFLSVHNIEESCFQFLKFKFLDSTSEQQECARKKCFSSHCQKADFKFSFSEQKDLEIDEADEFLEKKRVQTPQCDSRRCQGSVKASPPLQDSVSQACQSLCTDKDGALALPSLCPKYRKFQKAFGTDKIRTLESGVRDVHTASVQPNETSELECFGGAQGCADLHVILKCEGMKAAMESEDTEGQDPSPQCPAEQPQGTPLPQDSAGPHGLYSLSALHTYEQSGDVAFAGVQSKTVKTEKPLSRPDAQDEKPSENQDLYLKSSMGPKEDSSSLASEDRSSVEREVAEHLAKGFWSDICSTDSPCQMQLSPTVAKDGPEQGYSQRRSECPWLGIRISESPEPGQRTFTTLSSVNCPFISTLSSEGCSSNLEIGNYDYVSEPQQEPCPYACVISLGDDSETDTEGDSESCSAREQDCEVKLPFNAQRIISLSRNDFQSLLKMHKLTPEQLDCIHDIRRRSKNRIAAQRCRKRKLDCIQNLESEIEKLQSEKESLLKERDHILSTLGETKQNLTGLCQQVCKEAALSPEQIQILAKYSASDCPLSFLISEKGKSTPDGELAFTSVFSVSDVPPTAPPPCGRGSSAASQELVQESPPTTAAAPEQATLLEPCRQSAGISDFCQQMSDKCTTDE
UniProt P70255, whole entry: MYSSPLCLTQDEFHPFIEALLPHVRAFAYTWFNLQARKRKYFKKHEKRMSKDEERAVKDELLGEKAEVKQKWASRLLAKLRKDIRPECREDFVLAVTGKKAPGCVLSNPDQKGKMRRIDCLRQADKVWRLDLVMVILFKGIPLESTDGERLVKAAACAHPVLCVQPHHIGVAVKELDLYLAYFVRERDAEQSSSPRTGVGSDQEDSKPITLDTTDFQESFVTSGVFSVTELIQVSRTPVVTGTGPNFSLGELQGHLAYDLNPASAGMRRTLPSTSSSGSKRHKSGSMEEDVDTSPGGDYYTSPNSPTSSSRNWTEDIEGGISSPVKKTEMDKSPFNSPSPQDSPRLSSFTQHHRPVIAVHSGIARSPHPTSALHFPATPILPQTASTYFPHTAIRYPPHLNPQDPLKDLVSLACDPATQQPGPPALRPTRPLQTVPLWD
UniProt P97792: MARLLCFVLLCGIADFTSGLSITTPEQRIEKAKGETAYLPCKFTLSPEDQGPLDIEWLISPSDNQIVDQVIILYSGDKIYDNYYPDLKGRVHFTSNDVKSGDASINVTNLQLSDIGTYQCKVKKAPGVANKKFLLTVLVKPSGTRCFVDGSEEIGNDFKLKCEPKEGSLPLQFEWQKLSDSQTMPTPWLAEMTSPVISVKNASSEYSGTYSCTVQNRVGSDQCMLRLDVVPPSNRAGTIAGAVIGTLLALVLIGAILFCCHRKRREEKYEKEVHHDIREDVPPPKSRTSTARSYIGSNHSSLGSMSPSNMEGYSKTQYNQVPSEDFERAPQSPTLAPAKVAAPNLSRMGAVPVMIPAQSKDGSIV
UniProt P97473: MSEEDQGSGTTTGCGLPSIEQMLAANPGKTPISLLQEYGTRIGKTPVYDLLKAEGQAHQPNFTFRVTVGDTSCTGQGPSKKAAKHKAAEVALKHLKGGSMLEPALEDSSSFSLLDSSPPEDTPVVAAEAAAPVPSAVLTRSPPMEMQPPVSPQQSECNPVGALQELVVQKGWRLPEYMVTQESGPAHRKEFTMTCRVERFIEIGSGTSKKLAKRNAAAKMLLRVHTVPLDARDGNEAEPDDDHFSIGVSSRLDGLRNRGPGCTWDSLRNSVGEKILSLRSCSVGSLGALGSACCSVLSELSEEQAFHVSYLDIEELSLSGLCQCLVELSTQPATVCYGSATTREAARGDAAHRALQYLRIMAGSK

Each target was assayed with CN[C@@H]1C[C@H]2O[C@@](C)([C@@H]1OC)n1c3ccccc3c3c4c(c5c6ccccc6n2c5c31)C(=O)NC4 [staurosporine] (assay: log2 fold change of tryptic peptide abundance, ligand vs vehicle (limited proteolysis) (log2 ratio); higher = more trypsin-susceptible (destabilized)). Settings: ligand concentration: 20 uM; sample: mouse liver crude lysate; replicate design: treated separately.
“UniProt P63254 (peptide sequence: PKCPKCDK, peptide start residue: 2)” gave a log2 fold change of -0.468. With “UniProt P97302 (peptide sequence: FSFSEQK, peptide start residue: 157)” the log2 fold change was 0.223. Work on “UniProt P70255 (peptide sequence: TLPSTSSSGSK, peptide start residue: 270)” yielded a log2 fold change of -0.248. Work on “UniProt P97792 (peptide sequence: MGAVPVMIPAQSK, peptide start residue: 348)” yielded a log2 fold change of -0.0612. “UniProt P97473 (peptide sequence: VTVGDTSCTGQGPSKK, peptide start residue: 66)” gave a log2 fold change of 0.181.
